Results on 59 molecules are retold here after PubChem BioAssay AID2685 (National Center for Advancing Translational Sciences (NCATS), 2010).

The test can be described thus: qHTS Assay for Lipid Storage Modulators in Drosophila S3 Cells.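 For cell number change: cells counted by Cell Tracker Red CMTPX staining in the red channel.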 Particulars: BODIPY lipid droplet fluorescence, 18-24 h; for cell number change: measured here: cell count max response, cells fed with added oleic acid. The method in brief: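 Drosophila S3 cells loaded with oleic acid (400 uM, as added) and compounds at several concentrations; lipid droplets imaged by 488-nm laser-scanning cytometry, 500–530 nm intensity and object ratio to cell channel. Percent activity normalized to 20 uM Triacsin C.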

Where [1] appears, read: measured here: lipid fluorescence (Fed channel) AC50, cells fed with added oleic acid.
Where [2] appears, read: measured here: cell number channel AC50, cells fed with added oleic acid.

Molecules are shown by their SMILES. The list shows a part of the results. These are further read-outs of the screen, such as a control signal, another cell line or another target. No call is given for them. Most of these compounds were active or inconclusive in the main read-out, so they are no random draw. Potencies come from curve fits of mixed quality, noted in brackets.

`C=CCC1(CC=C)CCCN1C(=O)c1cc(COc2cncc(Cl)c2)on1`: the cell number change was -8.38%. Moreover, under setting [1], the AC50 is 5.8 µM [falling, full curve, poor fit]. As to `CC(=O)OC(C(=O)NCCc1ccccc1)c1cccnc1` (stereo unspecified), the cell number change was 39%. For the same molecule, under setting [2], the AC50 is 2.31 µM [rising, full curve]. The AC50 under setting [1] was 2.31 µM [rising, partial curve]. Consider `O=C(OCCN1CCN(C2=NS(=O)(=O)c3ccccc32)CC1)c1ccccc1F`, for which, under setting [1], the AC50 is 29.1 µM [falling, single point]. Take `Cc1cccc(OCCNC(=S)NC(=O)c2cncc(Br)c2)c1`: the cell number change stood at 30%. Besides, under setting [2], the AC50 is 4.11 µM [rising, full curve, poor fit]. Take `Cc1cccc(C(=O)NCCc2csc(C)n2)c1`: the cell number change worked out at 58.2%. The AC50 under setting [2] was 16.4 µM [rising, single point].

For the molecule `CC(C)(C)NC(=O)C(c1ccc(O)cc1)N(C(=O)CCC(=O)Nc1nccs1)c1ccccc1F` (stereo unspecified), the cell number change is -7.61%. The AC50 under setting [1] was 0.651 µM [falling, full curve]. In the case of `Cc1ccccc1NC(=O)CSc1nc(=O)n(CCN2CCOCC2)c2c1CCCC2`, the cell number change amounted to 3.11%. For the same molecule, under setting [2], the AC50 is 0.731 µM [falling, full curve, poor fit]. Further, the AC50 under setting [1] was 1.3 µM [falling, full curve]. On to `O=C(NCc1ccccc1F)c1ccc2c(c1)OCO2`, for which the AC50 was 0.0326 µM [rising, full curve, poor fit] under setting [2] and 5.8 µM [rising, partial curve, poor fit] under setting [1]. In the case of `Cc1ccnc(OC(C(=O)O)C(OCCc2ccccc2)(c2ccccc2)c2ccccc2)n1` (stereo unspecified), the cell number change is -31.5%. Moreover, under setting [2], the AC50 is 20.6 µM [falling, single point]. The AC50 under setting [1] was 8.2 µM [falling, partial curve]. `COc1cccc(OCc2cc(C(=O)N3CCN(C(=O)c4ccco4)CC3)no2)c1`: the AC50 under setting [1] is 1.46 µM [rising, partial curve]. As for `COc1cccc(C2CC(c3ccccc3)n3ncnc3N2)c1` (stereo unspecified), the cell number change was 46.5%. The AC50 under setting [2] is 20.6 µM [rising, single point]. Under setting [1], the AC50 was 23.1 µM [rising, single point]. For the molecule `O=C(COC(=O)Cc1ccsc1)NC1CCCCCC1`, the cell number change was -2.71%. Besides, the AC50 under setting [1] is 29.1 µM [falling, single point]. Regarding `O=S(=O)(Nc1cc(S(=O)(=O)N2CCOCC2)ccc1N1CCOCC1)c1ccc2c(c1)OCCO2`, the cell number change was -38%. Moreover, the AC50 under setting [2] is 0.517 µM [falling, partial curve, poor fit]. Consider `COc1ccc(N2C(=O)CCC(C(=O)N3CCCCCC3)C2c2ccc(OC)c(OC)c2)cc1` (stereo unspecified), for which the cell number change is -15.6%. Under setting [1], the AC50 is 6.51 µM [rising, partial curve, poor fit]. As to `COCCOC(=O)c1[nH]c2c(c1C)C(=O)CC(c1ccc(N(C)C)cc1)C2` (stereo unspecified), the cell number change is -7.75%. Besides, the AC50 under setting [2] was 1.3 µM [rising, partial curve]. The AC50 under setting [1] was 0.82 µM [rising, partial curve]. Turning to `CCOC(=O)c1ccc(NC2c3ccccc3C(=O)N2c2cccnc2)cc1` (stereo unspecified), the cell number change stood at 0.179%. Besides, the AC50 under setting [1] is 6.51 µM [rising, single point]. For the molecule `Cc1ccc2cc(C)c(SCC(=O)NCC3CCCO3)nc2c1` (stereo unspecified), the cell number change was 13.5%. Regarding `COC(=O)[C@H](Cc1ccccc1)NC(=O)[C@@]1(C)C[C@@H]1[C@@H](NC(=O)OCc1ccccc1)c1ccccc1`, the cell number change is -22.3%. Moreover, the AC50 under setting [1] was 5.8 µM [falling, partial curve]. Regarding `COc1ccc(C2C(C(=O)Nc3ccc(OC)c(OC)c3)c3ccccc3C(=O)N2C)cc1` (stereo unspecified), the cell number change came to 96.4%. Besides, under setting [2], the AC50 is 4.61 µM [rising, partial curve]. Besides, the AC50 under setting [1] is 10.3 µM [rising, partial curve]. For the molecule `CCOC(=O)c1cccnc1SCc1cc(=O)n2ccccc2n1`, the cell number change worked out at 4.65%. In addition, the AC50 under setting [1] was 3.66 µM [rising, full curve, poor fit].

For `COc1ccccc1CNC(=O)c1oc2ccc(S(=O)(=O)N3CCOCC3)cc2c1C`, the AC50 under setting [1] was 29.1 µM [falling, partial curve]. Turning to `CC(=O)N1CCc2c(sc(NC(=O)Cc3ccccc3)c2C#N)C1`, the cell number change is -10.9%. Also, under setting [1], the AC50 is 29.1 µM [falling, partial curve, poor fit]. Take `Cc1ccc(CNC(=O)CSc2nc(C)cs2)cc1`: the cell number change worked out at 27.5%. Moreover, the AC50 under setting [1] is 29.1 µM [rising, single point]. On to `Cc1cnc(C(=O)OCc2ccc(COC(=O)c3cnc(C)cn3)cc2)cn1`, for which the cell number change amounted to 0.261%. Take `CCOC(=O)C1CCCN(C(=O)C2CCCN(S(=O)(=O)c3ccc4c(c3)oc(=O)n4C)C2)C1` (stereo unspecified): the cell number change is -12.5%. With `O=C(Nc1cccnc1)c1cc2cc(Br)ccc2oc1=O`, the cell number change came to 39.3%. Moreover, under setting [2], the AC50 is 4.61 µM [rising, full curve]. Turning to `Cc1c(NC2=CC(=O)CC(C)(C)C2)ccc([N+](=O)[O-])c1C`, the cell number change turned out to be 17%.

For the molecule `C=CCCC(=O)NC1CC(C)(C)Cc2c1cnn2-c1ccc(OC)cc1` (stereo unspecified), the cell number change came to 0.525%. For the same molecule, the AC50 under setting [1] was 6.51 µM [falling, single point].

As for `CNC(=O)CN(Cc1ccccc1)S(=O)(=O)c1ccc(Cl)cc1`, the cell number change was -5.77%. The AC50 under setting [1] is 0.58 µM [rising, single point]. For the molecule `O=C(c1ccc(-n2cccc2)cc1)N1CCOCC1`, the cell number change was -15.5%. Further, the AC50 under setting [1] was 0.326 µM [falling, full curve, poor fit].

For `CC1Cc2ccccc2N1C(=O)CSc1ncccc1C(=O)O` (stereo unspecified), the cell number change is -25.2%. For the same molecule, the AC50 under setting [2] was 0.146 µM [falling, full curve]. For the same molecule, the AC50 under setting [1] was 4.11 µM [falling, full curve]. As to `CCn1c(NC(=O)c2ccccc2)c(-c2cccs2)c(=O)c2ccccc21`, the cell number change came out at 49.1%. Besides, under setting [2], the AC50 was 29.1 µM [rising, single point]. Also, the AC50 under setting [1] is 29.1 µM [rising, single point]. `CCCCC(=O)Nc1cccc(NC(=O)c2ccccc2Br)c1`: the cell number change turned out to be 59.2%. Further, the AC50 under setting [2] was 23.1 µM [rising, single point]. For the same molecule, under setting [1], the AC50 was 6.51 µM [rising, single point]. As for `COc1ccc(NC(=O)CC(C)C)c(OC)c1`, the AC50 is 2.91 µM [falling, single point] under setting [2] and 0.0058 µM [falling, full curve, poor fit] under setting [1]. Take `CCN(CC)c1ccc2c(C)c(CN3CCOCC3)c(=O)oc2c1`: the cell number change is 15.3%. The AC50 under setting [1] is 23.1 µM [rising, single point]. On to `COc1ccc(/C=C/C(=O)N[C@H](C(=O)O)C(C)C)cc1`, for which the cell number change is -21.7%. The AC50 under setting [2] was 0.58 µM [rising, full curve].

As to `CCN1CCCC1CNC(=O)c1cc2c(-c3ccc(Cl)cc3)nn(C)c2s1` (stereo unspecified), the AC50 is, setting by setting: under setting [2], 6.51 µM [falling, single point]; under setting [1], 4.11 µM [falling, single point]. Consider `CC(C)(C)OC(=O)N1CCC[C@@H]1C(=O)N1CCC(C(=O)O)CC1`, for which the cell number change came to 3.08%. Under setting [1], the AC50 is 5.8 µM [falling, single point]. Consider `O=C1C2C3CCC(C3)C2C(=O)N1CNc1ccccc1` (stereo unspecified), for which the cell number change was -22%. The AC50 under setting [1] was 0.411 µM [falling, full curve, poor fit].

On to `CC1CCN(CCCNC(=O)CN2C(=O)CSc3ccc(S(=O)(=O)N4CCCCC4)cc32)CC1`, for which the cell number change is 6.26%. Consider `O=S(=O)(Cc1ccccc1)N1CCC(N2CCN(c3ccccc3)CC2)CC1`, for which the cell number change was -17.3%. Moreover, under setting [1], the AC50 was 0.259 µM [rising, full curve, poor fit]. With `O=C(CNC(=O)c1ccccc1F)NCCc1ccc(Cl)cc1`, the cell number change is -2.56%. Regarding `CCOc1ccc(CCNC(=O)COC(=O)/C=C/c2ccc(C)o2)cc1OCC`, the cell number change was -48.5%. For the same molecule, under setting [2], the AC50 was 2.06 µM [falling, full curve]. As to `COc1cc(OC)nc(NC(=S)NC(=O)c2ccccc2)n1`, the cell number change amounted to 4.19%. The AC50 under setting [1] was 3.26 µM [falling, single point]. As to `COc1ccccc1NS(=O)(=O)c1ccc(C)c(NC(=O)C2CCCO2)c1` (stereo unspecified), the cell number change is -12.1%. Under setting [1], the AC50 was 23.1 µM [falling, partial curve, poor fit]. As to `CN1CCN(C(=S)c2cn(Cc3ccccc3)c3ccccc23)CC1`, the cell number change was found to be 19.7%.

For the molecule `CCc1cccc(C)c1NC(=O)C1=C(C(=O)O)CCCC1`, the cell number change is 4.72%. In addition, the AC50 under setting [1] was 29.1 µM [rising, single point]. Turning to `O=C(NCc1ccccc1C(F)(F)F)C1CC(c2ccccc2C(F)(F)F)=NO1` (stereo unspecified), the cell number change was found to be 1.31%. Moreover, the AC50 under setting [1] was 1.64 µM [rising, full curve, poor fit].

For the molecule `CCC(CC)c1nnc(NC(=O)C2CC(=O)N(C3CCCC3)C2)s1` (stereo unspecified), the cell number change was found to be 12.2%. For the same molecule, the AC50 under setting [1] is 29.1 µM [rising, single point]. For `CCCCS(=O)(=O)N1CCCC(C(=O)Nc2ccc(Cl)cn2)C1` (stereo unspecified), the cell number change turned out to be 6.99%. Moreover, the AC50 under setting [1] is 0.0366 µM [rising, full curve, poor fit]. As to `Cc1ccc2nc(SCn3nnc4ccccc4c3=O)[nH]c2c1`, the cell number change worked out at 4.35%. The AC50 under setting [1] is 0.082 µM [rising, full curve, poor fit]. Turning to `C[n+]1ccccc1/C=C/c1ccccc1Cl`, the cell number change was determined as 21.1%. As to `O=S(=O)(c1cccs1)N1CCN(c2ccccc2)CC1`, the cell number change amounted to 26.1%. Under setting [2], the AC50 was 0.103 µM [rising, full curve, poor fit]. Further, the AC50 under setting [1] was 25.9 µM [falling, single point].

For `Cc1cc(C(C)(C)C)cc(C)c1S(=O)(=O)N1CCN(C(=O)c2cc([N+](=O)[O-])c[nH]c2=O)CC1`, the cell number change is -8.57%. The concentration at half-maximal activity (AC50) under setting [1] was 6.51 µM [rising, partial curve]. With `COc1ccc(C(=O)CNc2ccccc2CO)cc1`, the cell number change amounted to 8.04%. Also, the AC50 under setting [1] was 0.103 µM [rising, full curve, poor fit]. With `O=C(C(Cl)c1ccccc1)N1CCCC1` (stereo unspecified), the cell number change is -10%. Under setting [1], the AC50 is 1.16 µM [rising, single point].

With `CN(C)/C=C1/C(=O)N(c2ccc([N+](=O)[O-])cc2)N=C1c1ccccc1`, the cell number change is -9.73%. For the same molecule, under setting [1], the AC50 was 29.1 µM [rising, partial curve, poor fit].

In the case of `S=C(NCCCN1CCOCC1)NC1CCCC1`, the cell number change was -19.3%. As to `COc1ccc([C@@H]2C(C#N)=C(N)S[C@@H](c3ccccc3)[C@@H]2[N+](=O)[O-])cc1`, the cell number change was -5.17%. Moreover, the AC50 under setting [1] is 16.4 µM [rising, partial curve, poor fit].

The term AC50 denotes the concentration giving half of the maximal activity seen. Low values mean greater potency, high ones weaker potency.
